According to paper PMC10398996:
Numbering of substitutions follows the chain as printed. In names and notes the source's numbering stands. These are yes or no findings as the source states them, for the method shown. For part of these data: In cells and extracts the contact can be indirect. Some results given as binding are weak or reduced against the parent protein; the word gives no strength. For part of these data: Tags and fused reporters may be left off the sequences shown. Blank lines part the entries; values can stand above or below the molecule they belong to.

Tests used:
[1] = molecular target: APLP2 WT, C-terminally HA tagged or c-myc tagged (UniProt Q06481); experiment: condition: only denaturing SDS-PAGE, sample buffer without DTT; cross-linking; disulfide bridges through introduced cysteines; N2a lysates in sample buffer without DTT, denaturing SDS-PAGE, Western blot with α-HA
APLP2 S692C, HA tagged = APLP2 S692C, HA tagged (UniProt Q06481); experiment: cross-linking; disulfide bridges through introduced cysteines; N2a lysates in sample buffer without DTT, denaturing SDS-PAGE, Western blot with α-HA
APLP2 L690C, HA tagged = APLP2 L690C, HA tagged (UniProt Q06481); experiment: as above
[2] = molecular target: endogenous mouse APLP2 (mouse (endogenous in C57BL/6 cortex and mouse cells)) (UniProt Q06335); experiment: native gel or EMSA; Blue Native PAGE, semi-denaturing conditions, of mouse primary cortical neurons at DIV5 and DIV19; Western blot with Y188, 57 or D2-II
APLP1 R579C, HA tagged = APLP1 R579C, HA tagged (UniProt P51693); experiment: cross-linking; disulfide bridges through introduced cysteines; N2a lysates in sample buffer without DTT, denaturing SDS-PAGE, Western blot with α-HA
[3] = molecular target: APLP1 WT, C-terminally HA tagged or c-myc tagged (UniProt P51693); experiment: co-IP; cis: HA and c-myc tagged copies co-expressed in the same N2a cells; lysis in 50 mM Tris/HCl pH 7.5, 150 mM NaCl, 5 mM EDTA, 1% NP40; α-HA antibody beads; blot with α-c-myc
[4] = molecular target: APLP1 WT, C-terminally HA tagged or c-myc tagged (UniProt P51693); experiment: cross-linking; disulfide bridges through introduced cysteines; N2a lysates in sample buffer without DTT, denaturing SDS-PAGE, Western blot with α-HA
[5] = molecular target: APLP1 WT, C-terminally HA tagged or c-myc tagged (UniProt P51693); experiment: co-IP; trans: HA and c-myc tagged copies transfected into N2a cells in separate dishes, cells combined 4 h post-transfection and co-cultivated; lysis in 1% NP40 buffer; α-HA antibody beads; blot with α-c-myc
[6] = molecular target: APLP1 WT, C-terminally HA tagged or c-myc tagged (UniProt P51693); experiment: condition: only denaturing SDS-PAGE, sample buffer without DTT; cross-linking; disulfide bridges through introduced cysteines; N2a lysates in sample buffer without DTT, denaturing SDS-PAGE, Western blot with α-HA
APLP1 E580C, HA tagged = APLP1 E580C, HA tagged (UniProt P51693); experiment: cross-linking; disulfide bridges through introduced cysteines; N2a lysates in sample buffer without DTT, denaturing SDS-PAGE, Western blot with α-HA
[7] = molecular target: T1, endogenous mouse APLP2 (mouse (endogenous in C57BL/6 cortex and mouse cells)), Q06335; experiment: native gel or EMSA; Blue Native PAGE of the post nuclear fraction (PNF) and concentrated synaptosomes (Syn H-co) of mouse brain, no Triton X-100; Western blot with Y188, 57 or D2-II; conditions: remark: other sources report otherwise
T1 chain: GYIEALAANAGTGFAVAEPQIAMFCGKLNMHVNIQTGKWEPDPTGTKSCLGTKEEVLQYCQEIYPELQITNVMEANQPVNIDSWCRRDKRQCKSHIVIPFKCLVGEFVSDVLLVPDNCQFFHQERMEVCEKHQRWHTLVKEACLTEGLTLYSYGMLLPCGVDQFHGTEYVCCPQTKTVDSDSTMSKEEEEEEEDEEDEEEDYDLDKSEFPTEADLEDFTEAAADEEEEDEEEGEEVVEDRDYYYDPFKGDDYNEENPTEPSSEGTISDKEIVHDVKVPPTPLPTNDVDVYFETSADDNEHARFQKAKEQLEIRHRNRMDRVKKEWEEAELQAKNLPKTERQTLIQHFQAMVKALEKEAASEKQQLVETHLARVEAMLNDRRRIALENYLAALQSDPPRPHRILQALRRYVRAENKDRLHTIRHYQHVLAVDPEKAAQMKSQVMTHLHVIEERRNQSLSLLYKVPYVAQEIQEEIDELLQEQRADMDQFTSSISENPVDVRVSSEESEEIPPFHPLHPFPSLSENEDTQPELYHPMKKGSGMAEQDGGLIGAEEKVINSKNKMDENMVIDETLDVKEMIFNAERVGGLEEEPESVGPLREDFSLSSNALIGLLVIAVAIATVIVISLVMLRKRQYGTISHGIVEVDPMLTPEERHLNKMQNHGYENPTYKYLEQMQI

[8] = molecular target: T1, endogenous mouse APLP2 (mouse …); experiment: native gel or EMSA; Blue Native PAGE, semi-denaturing conditions, of lysates of mouse primary cortical astrocytes and of untransfected N2a cells (endogenous proteins); Western blot with Y188, 57 or D2-II; conditions: remark: other sources report otherwise

binding [1]: no binding
Molecule: APLP2 WT, C-terminally HA tagged or c-myc tagged (from UniProt Q06481 32-763)

binding (APLP2 S692C, HA tagged): binds
Molecule: APLP2 S692C, HA tagged (from UniProt Q06481 32-763)

binding (APLP2 L690C, HA tagged): binds
Molecule: APLP2 L690C, HA tagged (from UniProt Q06481 32-763)

binding [2]: binds weakly
Molecule: endogenous mouse APLP2 (from UniProt Q06335 32-707)

binding (APLP1 R579C, HA tagged): binds
B1: APLP1 R579C, HA tagged (protein, UniProt P51693 39-650)
chain: SLAGGSPGAAEAPGSAQVAGLCGRLTLHRDLRTGRWEPDPQRSRRCLRDPQRVLEYCRQMYPELQIARVEQATQAIPMERWCGGSRSGSCAHPHHQVVPFRCLPGEFVSEALLVPEGCRFLHQERMDQCESSTRRHQEAQEACSSQGLILHGSGMLLPCGSDRFRGVEYVCCPPPGTPDPSGTAVGDPSTRSWPPGSRVEGAEDEEEEESFPQPVDDYFVEPPQAEEEEETVPPPSSHTLAVVGKVTPTPRPTDGVDIYFGMPGEISEHEGFLRAKMDLEERRMRQINEVMREWAMADNQSKNLPKADRQALNEHFQSILQTLEEQVSGERQRLVETHATRVIALINDQRRAALEGFLAALQADPPQAERVLLALRRYLRAEQKEQRHTLRHYQHVAAVDPEKAQQMRFQVHTHLQVIEERVNQSLGLLDQNPHLAQELRPQIQELLHSEHLGPSELEAPAPGGSSEDKGGLQPPDSKDDTPMTLPKGSTEQDAASPEKEKMNPLEQYERKVNASVPRGFPFHSSEIQRDELAPAGTGVSCEAVSGLLIMGAGGGSLIVLSMLLLRRKKPYGAISHGVVEVDPMLTLEEQQLRELQRHGYENPTYRFLEERP

binding [3]: binds | binding [4]: binds weakly | binding [5]: binds | binding [6]: no binding
B2: APLP1 WT, C-terminally HA tagged or c-myc tagged (protein, UniProt P51693 39-650)
chain: B1 chain with C541R

binding (APLP1 E580C, HA tagged): binds
B3: APLP1 E580C, HA tagged (protein, UniProt P51693 39-650)
chain: B1 chain with C541R, E542C

binding [7]: binds | binding [8]: binds
B4: endogenous mouse APLP2, Q06335 32-707 (natural protein)
chain: T1 chain
